Test [1] addresses heptameric Siglec-5/C4BP fusion protein (UniProt O15389). Nature of the test: BLI; Octet-QK; sSiglec-5/C4BP (10 μg/ml) immobilised onto amine-coupling biosensors, incubated with sPSGL1/Fc, sL-selectin/Fc or sCD44/Fc (10 μg/ml); preliminary experiments; both purified.
Test [2] addresses T1, PSGL1 (naturally expressed on leukocytes) (human (endogenous in PBMCs)) (UniProt Q14242).
T1 sequence: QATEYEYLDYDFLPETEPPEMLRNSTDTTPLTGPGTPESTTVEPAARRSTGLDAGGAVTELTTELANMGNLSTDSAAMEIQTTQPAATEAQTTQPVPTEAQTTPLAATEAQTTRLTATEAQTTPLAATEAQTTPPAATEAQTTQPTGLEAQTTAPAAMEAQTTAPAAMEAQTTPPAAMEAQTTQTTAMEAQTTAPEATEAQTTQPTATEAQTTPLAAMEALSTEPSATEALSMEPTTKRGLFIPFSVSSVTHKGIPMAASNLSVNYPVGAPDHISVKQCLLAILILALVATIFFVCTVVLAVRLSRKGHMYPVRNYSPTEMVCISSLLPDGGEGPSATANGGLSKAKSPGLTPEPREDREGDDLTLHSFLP
Put plainly: proximity ligation; Duolink-PLA on fixed, permeabilised human PBMCs; polyclonal anti-Siglec-5 and monoclonal anti-PSGL1 antibodies; signal only when the two antigens are less than 40 nm apart.

Results are given in words; binding and its absence hold for the method and conditions named. For some assays here: Binding seen in cells or lysates may run through a third protein. Some binding calls cover weakened binding; strength is not graded here. For some assays here: Sequences can lack the tags named with a protein.

B1: soluble recombinant human L-selectin fused to human Fc (Fc fusion, UniProt P14151 39-332)
chain: WTYHYSEKPMNWQRARRFCRDNYTDLVAIQNKAEIEYLEKTLPFSRSYYWIGIRKIGGIWTWVGTNKSLTEEAENWGDGEPNNKKNKEDCVEIYIKRNKDAGKWNDDACHKLKAALCYTASCQPWSCSGHGECVEIINNYTCNCDVGYYGPQCQFVIQCEPLEAPELGTMDCTHPLGNFSFSSQCAFSCSEGTNLTGIEETTCGPFGNWSSPEPTCQVIQCEPLSAPDLGIMNCSHPLASFSFTSACTFICSEGTELIGKKKTICESSGIWSNPSPICQKLDKSFSMIKEGDYN
Take B1: in test [1], the binding result is listed as “binds”.

B2: Siglec-5 (naturally expressed on PBMCs) (receptor, UniProt O15389 17-551)
chain: EKPVYELQVQKSVTVQEGLCVLVPCSFSYPWRSWYSSPPLYVYWFRDGEIPYYAEVVATNNPDRRVKPETQGRFRLLGDVQKKNCSLSIGDARMEDTGSYFFRVERGRDVKYSYQQNKLNLEVTALIEKPDIHFLEPLESGRPTRLSCSLPGSCEAGPPLTFSWTGNALSPLDPETTRSSELTLTPRPEDHGTNLTCQMKRQGAQVTTERTVQLNVSYAPQTITIFRNGIALEILQNTSYLPVLEGQALRLLCDAPSNPPAHLSWFQGSPALNATPISNTGILELRRVRSAEEGGFTCRAQHPLGFLQIFLNLSVYSLPQLLGPSCSWEAEGLHCRCSFRARPAPSLCWRLEEKPLEGNSSQGSFKVNSSSAGPWANSSLILHGGLSSDLKVSCKAWNIYGSQSGSVLLLQGRSNLGTGVVPAALGGAGVMALLCICLCLIFFLIVKARRKQAAGRPEKMDDEDPIMGTITSGSRKKPWPDSPGDQASPPGDAPPLEEQKELHYASLSFSEMKSREPKDQEAPSTTEYSEIKTSK
As to B2, the binding result in test [2] was “binds”.

For the origin of these results see PMC5125011, “Soluble Siglec-5 associates to PSGL-1 and displays anti-inflammatory activity” (Scientific Reports, 2016).
